# From article PMC3783193
# Sequences of proteins named here, by UniProt entry; tags and fusion partners are left off. A change or cut given only in a name is not applied to a line headed by its entry.
# UniProt Q5ZJV9: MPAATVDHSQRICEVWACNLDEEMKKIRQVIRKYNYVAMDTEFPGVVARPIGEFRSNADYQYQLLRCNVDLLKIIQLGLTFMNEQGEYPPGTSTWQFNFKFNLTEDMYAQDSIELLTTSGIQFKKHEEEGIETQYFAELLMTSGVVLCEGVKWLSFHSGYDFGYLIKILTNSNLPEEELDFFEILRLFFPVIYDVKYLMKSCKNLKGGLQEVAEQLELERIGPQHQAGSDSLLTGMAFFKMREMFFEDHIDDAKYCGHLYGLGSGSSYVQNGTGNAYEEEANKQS
# UniProt Q5ZIW2: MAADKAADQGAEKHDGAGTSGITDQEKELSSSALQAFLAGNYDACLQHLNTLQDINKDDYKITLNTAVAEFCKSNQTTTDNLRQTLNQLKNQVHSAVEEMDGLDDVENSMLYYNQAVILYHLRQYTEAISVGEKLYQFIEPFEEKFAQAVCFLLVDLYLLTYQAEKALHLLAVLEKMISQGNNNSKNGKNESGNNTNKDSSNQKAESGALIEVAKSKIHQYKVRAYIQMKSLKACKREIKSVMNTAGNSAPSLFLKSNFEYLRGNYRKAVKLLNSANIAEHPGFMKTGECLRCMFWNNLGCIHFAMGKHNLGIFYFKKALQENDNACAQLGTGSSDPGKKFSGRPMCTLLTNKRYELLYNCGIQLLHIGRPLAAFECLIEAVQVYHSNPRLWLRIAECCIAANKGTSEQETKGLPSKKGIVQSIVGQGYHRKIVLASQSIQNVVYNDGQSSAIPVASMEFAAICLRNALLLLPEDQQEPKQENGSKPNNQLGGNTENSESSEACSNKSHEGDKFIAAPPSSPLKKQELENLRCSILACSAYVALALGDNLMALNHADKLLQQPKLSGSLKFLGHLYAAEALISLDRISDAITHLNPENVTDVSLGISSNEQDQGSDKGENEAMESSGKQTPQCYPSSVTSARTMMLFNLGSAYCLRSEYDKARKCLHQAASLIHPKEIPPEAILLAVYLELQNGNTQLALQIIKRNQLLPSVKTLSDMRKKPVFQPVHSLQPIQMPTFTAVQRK
# UniProt A0A8V0YGT1: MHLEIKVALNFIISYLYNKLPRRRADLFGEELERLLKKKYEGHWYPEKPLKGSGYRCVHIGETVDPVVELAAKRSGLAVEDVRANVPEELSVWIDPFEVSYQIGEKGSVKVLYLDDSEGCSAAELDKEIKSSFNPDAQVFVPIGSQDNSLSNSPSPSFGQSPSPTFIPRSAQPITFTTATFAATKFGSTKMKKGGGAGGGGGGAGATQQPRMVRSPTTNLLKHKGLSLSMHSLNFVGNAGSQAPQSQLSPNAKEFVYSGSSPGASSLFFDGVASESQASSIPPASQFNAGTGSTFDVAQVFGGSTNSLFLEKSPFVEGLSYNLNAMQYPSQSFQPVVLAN
# Target: QuantEGFP-tagged CNOT7 (chicken (endogenous in DT40)) (UniProt Q5ZJV9)
# Assay: affinity purification with mass spectrometry; QuantEGFP-tagged bait captured from RNase A-digested DT40 lysate on GFP-Trap beads (1 h, 8°C; 10 mM Tris/HCl, 100 mM NaCl, Triton X-100), eluted with TEV protease, LC-MS; duplicates; control purification from parental DT40 Cre1 cells
row,binding,Substance
1,no binding,CNOT10 (from UniProt Q5ZIW2 1-744)
2,binds,TOB2 (from UniProt A0A8V0YGT1)

# Results are given in words; binding and its absence hold for the method and conditions named. Binding seen in cells or lysates may run through a third protein. Here binding means that the protein was enriched with, or labelled near, the bait; the list need not be complete. No binding means not detected with the bait.
